In PubChem BioAssay AID328 (DTP/NCI, 2004):
The list is a part of this screen's results and no random one: it is rich in T/C values a quarter to a half above the control, in often repeated tests (any T/C) and in doses without a T/C. Further doses and runs are listed elsewhere. T/C gives the treated animals as a percentage of the vehicle group. Some entries give survivors of the animals treated and no T/C: the source holds a T/C of zero for them, seemingly a mark for toxic or unscored doses. Some doses without a T/C left all or most animals alive at the check, yet need not have been tolerated: survival well below the control is almost never listed, so the zero probably covers shortened survival too. Counts of survivors are from the toxicity check (mostly the fifth day) where no day follows; animals may have died later. Schedules are NCI's codes, read here as Q, the interval in days (D) or hours (H), X, the number of doses. Where survival is the endpoint, this PubChem deposit counts one and a half times the control or more as active, and values a quarter to a half above the control carry no call in these data; other NCI protocols may use other cut-offs.

Test system: BDF1 mice, P388 leukemia ip, median survival T/C
Experiment: NCI In Vivo Anticancer Drug Screen. Data for tumor model P388 Leukemia (intraperitoneal) in B6D2F1 (BDF1) mice
Conditions: T/C endpoint: median survival time, higher T/C = longer survival
Outline: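 Survival ratio, drug arm over vehicle arm, in mice with a transplanted tumour.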

[1] = dose: 25.0 mg/kg/injection, schedule: Q01DX009 (ip), vehicle: Klucel (hydroxypropylcellulose) (HPC)
[2] = dose: 50.0 mg/kg/injection, schedule: Q01DX009 (ip), vehicle: Klucel (hydroxypropylcellulose) (HPC)
[3] = dose: 100.0 mg/kg/injection, schedule: Q01DX009 (ip), vehicle: Klucel (hydroxypropylcellulose) (HPC)
[4] = dose: 200.0 mg/kg/injection, schedule: Q01DX009 (ip), vehicle: Klucel (hydroxypropylcellulose) (HPC)
[5] = dose: 200.0 mg/kg/injection, schedule: Q01DX009 (ip), vehicle: saline with Tween-80
[6] = dose: 400.0 mg/kg/injection, schedule: Q01DX009 (ip), vehicle: Klucel (hydroxypropylcellulose) (HPC)
[7] = dose: 150.0 mg/kg/injection, schedule: Q01DX009 (ip), vehicle: saline

For `COc1cc([C@@H]2c3cc4c(c(O)c3C[C@H]3COC(=O)[C@@H]32)OCO4)cc(OC)c1OC`, the T/C (dose: 0.5 mg/kg/injection, schedule: Q01DX010 (ip), vehicle: saline) was 127 % of control, the T/C (dose: 1.0 mg/kg/injection, schedule: Q01DX010 (ip), vehicle: carboxymethylcellulose (CMC)) was 128 % of control and the T/C (dose: 1.0 mg/kg/injection, schedule: Q01DX010 (ip), vehicle: saline) was 145 % of control. For the same molecule, the T/C (dose: 2.0 mg/kg/injection, schedule: Q01DX001 (ip), vehicle: other) was 131 % of control, the T/C (dose: 2.0 mg/kg/injection, schedule: Q01DX010 (ip), vehicle: carboxymethylcellulose (CMC)) was 133 % of control and the T/C (dose: 4.0 mg/kg/injection, schedule: Q01DX001 (ip), vehicle: other) was 142 % of control. For the same molecule, the survivor count (dose: 4.0 mg/kg/injection, schedule: Q01DX010 (ip), vehicle: carboxymethylcellulose (CMC)) was 3 of 6, the T/C (dose: 4.0 mg/kg/injection, schedule: Q01DX010 (ip), vehicle: other) was 145 % of control and the survivor count (dose: 4.0 mg/kg/injection, schedule: Q01DX010 (ip), vehicle: saline) was 2 of 6. The T/C (dose: 8.0 mg/kg/injection, schedule: Q01DX001 (ip), vehicle: saline) was 131 % of control and the survivor count (dose: 8.0 mg/kg/injection, schedule: Q01DX010 (ip), vehicle: saline) was 0 of 6.
In the case of `CC[C@@H](C(=O)[C@@H](C)[C@@H](O)[C@H](C)CCc1ccc(C)c(O)c1C(=O)O)[C@H]1O[C@](CC)([C@H]2CC[C@](O)(CC)[C@H](C)O2)C[C@@H]1C`, the survivor count [1] is reported as 5 of 6, the survivor count [2] is reported as 3 of 6 and the survivor count [3] is reported as 2 of 6.
In the case of `O=[N+]([O-])c1ccc(S(=O)(=O)c2ccccc2)c2nonc12`, the survivor count (dose: 100.0 mg/kg/injection, schedule: Q01DX009 (ip), vehicle: saline with Tween-80) is reported as 5 of 7.
`CCC(=O)c1cc(O)ccc1O` was tested, and the survivor count (dose: 200.0 mg/kg/injection, schedule: Q01DX009 (ip), vehicle: other) was 4 of 6.
`CCCCCCCCCC(C)CC(=O)NCCCN(C)CCCCN(C)C` (configuration not stated) was tested, and the survivor count [1] was 0 of 6, the survivor count [2] was 0 of 6 and the survivor count [3] was 0 of 6. For the same molecule, the survivor count [4] was 0 of 6.
With `COc1ccc(C(Cn2ccnc2)Sc2ccc(Cl)c(Cl)c2)cc1` (configuration not stated) the T/C (dose: 50.0 mg/kg/injection, schedule: Q01DX009 (ip), vehicle: saline with Tween-80) was 128 % of control and the survivor count [5] was 0 of 6.
With `CC1(C)CC2C(=O)c3ccccc3NC2c2ccccc21` (configuration not stated) the T/C [6] was 125 % of control.
In the case of `NC(Cc1c[nH]c2cc(N(CCCl)CCCl)ccc12)C(=O)O` (configuration not stated), the T/C (dose: 2.0 mg/kg/injection, schedule: Q04DX003 (sc), vehicle: olive oil, sesame oil, peanut oil) is reported as 125 % of control, the survivor count (dose: 3.0 mg/kg/injection, schedule: Q01DX009 (sc), vehicle: olive oil, sesame oil, peanut oil) is reported as 2 of 6 and the T/C (dose: 3.0 mg/kg/injection, schedule: Q04DX003 (sc), vehicle: olive oil, sesame oil, peanut oil) is reported as 141 % of control. For the same molecule, the survivor count (dose: 6.0 mg/kg/injection, schedule: Q01DX009 (sc), vehicle: olive oil, sesame oil, peanut oil) was 6 of 6, the survivor count (dose: 12.0 mg/kg/injection, schedule: Q01DX009 (sc), vehicle: olive oil, sesame oil, peanut oil) was 4 of 6 and the survivor count (dose: 12.0 mg/kg/injection, schedule: Q04DX003 (sc), vehicle: olive oil, sesame oil, peanut oil) was 6 of 6. The survivor count (dose: 25.0 mg/kg/injection, schedule: Q04DX003 (sc), vehicle: olive oil, sesame oil, peanut oil) was 5 of 6, the survivor count (dose: 50.0 mg/kg/injection, schedule: Q04DX003 (sc), vehicle: olive oil, sesame oil, peanut oil) was 4 of 6 and the survivor count (dose: 100.0 mg/kg/injection, schedule: Q04DX003 (sc), vehicle: olive oil, sesame oil, peanut oil) was 0 of 6. The survivor count (dose: 200.0 mg/kg/injection, schedule: Q04DX003 (sc), vehicle: olive oil, sesame oil, peanut oil) was 0 of 6 and the survivor count (dose: 400.0 mg/kg/injection, schedule: Q04DX003 (sc), vehicle: olive oil, sesame oil, peanut oil) was 0 of 6.
In the case of `CC1(C)N=C(N)N=C(N)N1c1cccc(OCCCOc2ccccc2)c1`, the survivor count (dose: 100.0 mg/kg/injection, schedule: Q01DX001 (ip), vehicle: Klucel (hydroxypropylcellulose) (HPC)) is reported as 2 of 6 and the survivor count (dose: 200.0 mg/kg/injection, schedule: Q01DX001 (ip), vehicle: Klucel (hydroxypropylcellulose) (HPC)) is reported as 0 of 6.
With `COc1cccc2c1C(=O)c1c(O)c3c(c(O)c1C2=O)CC(O)(C(C)=O)CC3OC1CC(NC(=O)CNC(=O)CN(C)C)C(O)C(C)O1` (configuration not stated) the T/C (dose: 25.0 mg/kg/injection, schedule: Q01DX009 (ip), vehicle: water) was 135 % of control.
`Cc1cc(NC(=O)Nc2ccc(C3=NCCN3)cc2)ccc1NC(=O)Nc1ccc(C2=NCCN2)cc1` was tested, and the T/C [5] was 145 % of control.
`NC(CCC(=O)NC(CSC(c1ccccc1)(c1ccccc1)c1ccc(F)cc1)C(=O)NCC(=O)O)C(=O)O` (configuration not stated) was tested, and the T/C (dose: 75.0 mg/kg/injection, schedule: Q04DX003 (ip), vehicle: saline) was 131 % of control, the T/C (dose: 177.0 mg/kg/injection, schedule: Q04DX003 (ip), vehicle: saline) was 145 % of control and the survivor count (dose: 400.0 mg/kg/injection, schedule: Q04DX003 (ip), vehicle: saline) was 3 of 6. For the same molecule, the survivor count (dose: 600.0 mg/kg/injection, schedule: Q04DX003 (ip), vehicle: saline with Tween-80) was 2 of 6 and the survivor count (dose: 600.0 mg/kg/injection, schedule: Q04DX003 (ip), vehicle: saline) was 4 of 6.
`CC1(C)N=C(N)N=C(N)N1c1ccc(CNC(=O)Nc2cccc(S(=O)(=O)F)c2)cc1` was tested, and the survivor count (dose: 75.0 mg/kg/injection, schedule: Q01DX009 (ip), vehicle: saline) was 6 of 6, the T/C (dose: 100.0 mg/kg/injection, schedule: Q04DX003 (ip), vehicle: saline) was 145 % of control and the survivor count [7] was 6 of 6. The survivor count (dose: 300.0 mg/kg/injection, schedule: Q01DX009 (ip), vehicle: saline) was 6 of 6.
`c1ccc([P+](C[P+](c2ccccc2)(c2ccccc2)c2ccccc2)(c2ccccc2)c2ccccc2)cc1` was tested, and the survivor count (dose: 3.5 mg/kg/injection, schedule: Q01DX009 (ip), vehicle: Klucel (hydroxypropylcellulose) (HPC)) was 4 of 6, the survivor count (dose: 5.2 mg/kg/injection, schedule: Q01DX009 (ip), vehicle: Klucel (hydroxypropylcellulose) (HPC)) was 0 of 6 and the survivor count (dose: 9.9 mg/kg/injection, schedule: Q04DX003 (ip), vehicle: Klucel (hydroxypropylcellulose) (HPC)) was 5 of 6. The survivor count (dose: 15.0 mg/kg/injection, schedule: Q04DX003 (ip), vehicle: Klucel (hydroxypropylcellulose) (HPC)) was 4 of 6 and the survivor count (dose: 22.0 mg/kg/injection, schedule: Q04DX003 (ip), vehicle: Klucel (hydroxypropylcellulose) (HPC)) was 1 of 6.
`CC[n+]1cccc(NC(=O)c2ccc(NC(=O)c3ccc(C(=O)Nc4ccc(C(=O)Nc5ccc[n+](CC)c5)cc4)cc3)cc2)c1` was tested, and the T/C (dose: 0.66 mg/kg/injection, schedule: Q04DX003 (ip), vehicle: saline) was 126 % of control, the T/C (dose: 1.0 mg/kg/injection, schedule: Q04DX003 (ip), vehicle: saline) was 133 % of control and the T/C (dose: 1.5 mg/kg/injection, schedule: Q04DX003 (ip), vehicle: saline) was 133 % of control. For the same molecule, the survivor count (dose: 100.0 mg/kg/injection, schedule: Q01DX009 (ip), vehicle: saline sonified) was 0 of 6, the survivor count (dose: 200.0 mg/kg/injection, schedule: Q01DX009 (ip), vehicle: saline sonified) was 0 of 6 and the survivor count (dose: 400.0 mg/kg/injection, schedule: Q01DX009 (ip), vehicle: saline sonified) was 0 of 6.
`O=C1C=CC(=O)C23CC=CCC12C(=O)c1ccccc1C3=O` (configuration not stated) was tested, and the survivor count (dose: 50.0 mg/kg/injection, schedule: Q04DX003 (ip), vehicle: water) was 3 of 6 and the survivor count (dose: 100.0 mg/kg/injection, schedule: Q04DX003 (ip), vehicle: water) was 1 of 6.
In the case of `O=S(=O)(CCl)OCCCCOS(=O)(=O)CCl`, the survivor count (dose: 100.0 mg/kg/injection, schedule: Q01DX009 (ip), vehicle: saline) is reported as 6 of 6 and the survivor count [7] is reported as 4 of 6.
`Cc1ccc(Oc2ccc3cc[n+](C)cc3c2)cc1` was tested, and the survivor count (dose: 25.0 mg/kg/injection, schedule: Q01DX009 (ip), vehicle: saline) was 3 of 6.
For `Nc1cccc2c1C(=O)c1cccc(NC(=O)c3ccccc3)c1C2=O`, the T/C [2] was 126 % of control, the T/C [3] was 126 % of control and the T/C [4] was 128 % of control. The T/C [6] was 147 % of control.
